Values quoted from earlier work as cited in US11534622B2, “Non-invasive systems and methods for selective activation of photoreactive responses” (IMMUNOLIGHT, LLC, priority 2014, dated 2022).
At least one structure is not confirmed: it was looked up by name or label, or the drawing left a doubt.

Tests used:
[1] = tested on: tissue; conditions: clinical studies, 652 nm light
[2] = tested on: tumors; conditions: in vivo

## Oc1cccc(-c2c3nc(c(-c4cccc(O)c4)c4ccc([nH]4)c(-c4cccc(O)c4)c4nc(c(-c5cccc(O)c5)c5ccc2[nH]5)CC4)C=C3)c1 [Foscan, Tetra (m-hydroxyphenyl) chlorin]
[1]
  tissue effect (depth): up to 10 mm
[2]
  selectivity for tumors compared to normal tissues: more selectively a photosensitizer in tumors than normal tissues
